Converted amounts (≈) assume the structure as drawn.
Columns and labels:
[1] = biological target: Voltage-gated inwardly rectifying potassium channel KCNH2 (Homo sapiens, UniProt Q12809); experiment: Inhibition of human ERG expressed in CHO cells
[2] = biological target: Cytochrome P450 2C19 (Homo sapiens, UniProt P33261)
[3] = physchem; conditions: octanol/water, pH 7.4
[4] = biological target: Cytochrome P450 2C9 (Homo sapiens, UniProt P11712)
[5] = physchem; conditions: buffer
[6] = biological target: Cytochrome P450 2D6 (Homo sapiens, UniProt P10635)
[7] = biological target: Cytochrome P450 3A4 (Homo sapiens, UniProt P08684); experiment: Inhibition of CYP3A4 in human liver microsomes using midazolam as substrate

Amino acid sequences for entries named in this document (tags omitted). A change or cut given only in a name is not applied to a line headed by its entry.
UniProt Q12809: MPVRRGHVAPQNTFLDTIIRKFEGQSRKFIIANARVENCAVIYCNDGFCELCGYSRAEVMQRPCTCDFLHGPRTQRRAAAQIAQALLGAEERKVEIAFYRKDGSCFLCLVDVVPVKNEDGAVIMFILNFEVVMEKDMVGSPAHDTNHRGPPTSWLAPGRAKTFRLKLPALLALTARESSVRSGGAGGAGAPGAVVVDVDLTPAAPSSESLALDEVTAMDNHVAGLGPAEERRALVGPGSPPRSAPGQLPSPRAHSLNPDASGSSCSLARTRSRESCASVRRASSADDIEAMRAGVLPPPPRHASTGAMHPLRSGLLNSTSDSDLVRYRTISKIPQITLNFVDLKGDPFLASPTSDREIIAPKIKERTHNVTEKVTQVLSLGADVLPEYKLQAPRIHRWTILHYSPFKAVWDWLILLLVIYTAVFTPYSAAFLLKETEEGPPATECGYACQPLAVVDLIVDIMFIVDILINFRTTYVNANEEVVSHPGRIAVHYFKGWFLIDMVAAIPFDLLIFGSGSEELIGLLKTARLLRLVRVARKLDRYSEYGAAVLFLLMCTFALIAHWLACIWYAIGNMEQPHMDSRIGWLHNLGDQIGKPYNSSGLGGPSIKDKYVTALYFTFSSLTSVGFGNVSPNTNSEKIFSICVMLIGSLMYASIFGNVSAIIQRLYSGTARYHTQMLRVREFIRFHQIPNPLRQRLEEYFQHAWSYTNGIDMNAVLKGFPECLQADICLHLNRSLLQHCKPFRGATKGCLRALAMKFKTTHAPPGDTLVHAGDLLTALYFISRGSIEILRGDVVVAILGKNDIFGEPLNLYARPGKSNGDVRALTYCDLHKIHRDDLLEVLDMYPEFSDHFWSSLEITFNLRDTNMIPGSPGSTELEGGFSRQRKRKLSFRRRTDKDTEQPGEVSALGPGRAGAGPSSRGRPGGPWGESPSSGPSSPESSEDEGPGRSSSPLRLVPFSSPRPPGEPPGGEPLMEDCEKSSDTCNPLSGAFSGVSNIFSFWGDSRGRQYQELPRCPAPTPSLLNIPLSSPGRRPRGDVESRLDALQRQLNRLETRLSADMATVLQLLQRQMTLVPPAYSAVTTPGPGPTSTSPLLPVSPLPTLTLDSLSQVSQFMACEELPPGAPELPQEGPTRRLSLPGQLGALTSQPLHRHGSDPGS
UniProt P33261, whole entry: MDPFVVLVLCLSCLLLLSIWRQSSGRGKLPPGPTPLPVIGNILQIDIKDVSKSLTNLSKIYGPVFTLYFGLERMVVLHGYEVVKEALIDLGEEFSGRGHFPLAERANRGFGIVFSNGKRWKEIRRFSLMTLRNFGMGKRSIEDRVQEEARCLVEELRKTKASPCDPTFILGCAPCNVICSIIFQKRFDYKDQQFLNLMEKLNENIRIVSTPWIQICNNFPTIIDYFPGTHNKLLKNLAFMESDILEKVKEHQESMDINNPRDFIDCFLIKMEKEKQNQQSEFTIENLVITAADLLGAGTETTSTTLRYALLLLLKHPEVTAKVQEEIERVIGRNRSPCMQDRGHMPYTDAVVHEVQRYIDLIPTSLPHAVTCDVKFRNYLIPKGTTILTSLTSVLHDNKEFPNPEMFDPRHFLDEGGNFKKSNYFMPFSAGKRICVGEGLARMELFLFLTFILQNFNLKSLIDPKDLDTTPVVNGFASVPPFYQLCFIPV
UniProt P11712, whole entry: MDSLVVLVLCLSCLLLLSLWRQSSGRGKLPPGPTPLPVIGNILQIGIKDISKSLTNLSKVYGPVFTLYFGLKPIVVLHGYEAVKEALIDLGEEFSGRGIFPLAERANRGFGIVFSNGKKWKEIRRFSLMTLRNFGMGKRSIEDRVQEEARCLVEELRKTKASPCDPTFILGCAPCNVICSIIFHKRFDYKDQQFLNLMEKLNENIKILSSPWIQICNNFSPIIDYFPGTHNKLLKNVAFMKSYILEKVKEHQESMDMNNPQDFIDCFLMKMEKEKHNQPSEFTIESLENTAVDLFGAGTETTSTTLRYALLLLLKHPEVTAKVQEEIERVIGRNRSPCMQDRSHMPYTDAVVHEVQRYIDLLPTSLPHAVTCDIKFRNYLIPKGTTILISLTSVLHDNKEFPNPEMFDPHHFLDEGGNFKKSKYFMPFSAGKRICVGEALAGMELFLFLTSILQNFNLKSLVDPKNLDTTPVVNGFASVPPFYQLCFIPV
UniProt P10635, whole entry: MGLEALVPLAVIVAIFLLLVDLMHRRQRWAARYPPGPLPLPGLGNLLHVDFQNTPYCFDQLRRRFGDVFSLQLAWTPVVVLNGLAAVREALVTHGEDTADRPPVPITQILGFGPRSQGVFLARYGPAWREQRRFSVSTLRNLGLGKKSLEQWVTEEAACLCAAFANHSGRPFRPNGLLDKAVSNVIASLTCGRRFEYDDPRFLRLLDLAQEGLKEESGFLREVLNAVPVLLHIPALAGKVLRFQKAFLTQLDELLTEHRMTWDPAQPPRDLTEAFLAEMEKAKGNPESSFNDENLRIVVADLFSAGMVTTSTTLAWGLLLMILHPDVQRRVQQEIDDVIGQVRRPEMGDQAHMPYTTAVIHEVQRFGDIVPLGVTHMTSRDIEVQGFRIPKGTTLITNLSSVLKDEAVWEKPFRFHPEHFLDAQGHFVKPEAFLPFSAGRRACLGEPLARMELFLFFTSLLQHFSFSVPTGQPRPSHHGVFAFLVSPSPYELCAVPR
UniProt P08684, whole entry: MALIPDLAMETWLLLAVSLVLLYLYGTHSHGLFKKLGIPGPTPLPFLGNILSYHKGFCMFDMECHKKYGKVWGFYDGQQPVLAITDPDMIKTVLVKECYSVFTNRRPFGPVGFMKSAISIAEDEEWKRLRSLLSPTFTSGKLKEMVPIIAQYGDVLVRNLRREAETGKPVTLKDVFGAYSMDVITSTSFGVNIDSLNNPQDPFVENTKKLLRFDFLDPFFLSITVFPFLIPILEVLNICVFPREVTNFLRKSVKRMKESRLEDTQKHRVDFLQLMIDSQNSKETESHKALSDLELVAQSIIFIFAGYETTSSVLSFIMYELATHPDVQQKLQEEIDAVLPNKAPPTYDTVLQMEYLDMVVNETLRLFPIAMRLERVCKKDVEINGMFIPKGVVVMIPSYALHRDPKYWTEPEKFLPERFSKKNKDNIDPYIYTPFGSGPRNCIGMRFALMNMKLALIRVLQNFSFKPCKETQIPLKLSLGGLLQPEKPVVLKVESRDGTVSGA

SMILES: Nc1ncc(-c2cc3ccccc3o2)c(N2CCC3(CCNC3=O)CC2)c1Cl
- IC50 [1]: > 25 µM
- IC50 [2]: > 25 µM
- logD [3]: 4.08
- IC50 [4]: > 25 µM
- solubility kinetic [5]: 3 µM (≈ 1.19 µg/mL)
- IC50 [6]: > 25 µM
- IC50 [7]: > 25 µM

From ChEMBL document CHEMBL4811251 (Eur J Med Chem, 2021)
